At least one structure is not confirmed: it was looked up by name or label, or the drawing left a doubt.
Biological target: T1, NAMPT (Homo sapiens, UniProt P43490)
T1 construct: purchased Abcam ab221819
Experiment: Colorimetric NAMPT activity assay (Abcam, ab221819)
Format: biochemical
Settings: at 10 μM
Procedure: Compounds were tested in a colorimetric NAMPT activity assay (Abcam, ab221819). Each data point represents a duplicate sample. […] Compounds were tested at 5 μM (A) or 20 μM (B).

Amino acid sequences for entries named in this document (tags omitted). A change or cut given only in a name is not applied to a line headed by its entry.
UniProt P43490: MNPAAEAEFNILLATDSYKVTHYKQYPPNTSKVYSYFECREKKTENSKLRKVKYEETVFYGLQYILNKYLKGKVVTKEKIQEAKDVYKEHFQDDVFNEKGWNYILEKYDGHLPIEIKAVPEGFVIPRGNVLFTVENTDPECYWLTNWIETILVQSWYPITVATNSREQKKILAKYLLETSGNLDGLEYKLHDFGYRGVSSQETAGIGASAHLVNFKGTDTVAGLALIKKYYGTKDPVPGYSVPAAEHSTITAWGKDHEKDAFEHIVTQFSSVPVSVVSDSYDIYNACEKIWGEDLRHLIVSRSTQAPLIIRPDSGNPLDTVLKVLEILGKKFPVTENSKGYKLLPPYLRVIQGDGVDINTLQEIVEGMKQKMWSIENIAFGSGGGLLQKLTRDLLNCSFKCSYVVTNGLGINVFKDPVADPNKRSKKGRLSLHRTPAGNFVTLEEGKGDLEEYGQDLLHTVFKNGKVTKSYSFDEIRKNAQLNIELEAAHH

## Cc1ccc(Nc2nccc(N(C)c3ccc4c(C)n(C)nc4c3)n2)cc1S(N)(=O)=O [pazopanib, reference compound]
  Activation of NAMPT: does not activate NAMPT

From patent US12590094B2, “Compounds for the treatment of neurodegenerative and metabolic disorders” (UNIVERSITY OF FLORIDA RESEARCH FOUNDATION, INCORPORATED, priority 2019, dated 2026)
